PubChem BioAssay AID1508600 (Functional Genomics Laboratory (NCATS/FGL), 2020)
About 3,700 (7%) of roughly 53,000 sequences were called active.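 Rule for the calls: active = gene knockdowns whose robust z-score for IL-1 alpha signal is at least 2 or at most -2, so actives lie on both sides; inactive = the rest.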 Some of the results follow.

test: Components of the Cytosolic LPS Sensing Pathway: Gene Identification via Genome-wide siRNA Screen; conditions: RAW264.7 macrophages, IL-1a HTRF, actives lie on both sides, screened at 100 nM (by protocol), cells primed 5 h with Pam3CSK4 first;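 note: robust z of the log signal after scaling to non-targeting control siRNA wells of the plate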
In short: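 IL-1a HTRF of supernatants after 24 hour LipidA transfection of Pam3CSK4-primed (5 hours) RAW264.7 cells, 48h post-siRNA transfection (100 nM). Scores: percent of plate negative-control median, then log-based robust z-score.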

| Sequence | z-score |
| --- | --- |
| GGACUUGGAAUAUGGACCATT against Mecom | inactive: -0.804 |
| GGGAAAGCCAUAUUUUUUATT against Galr1 | inactive: 0.839 |
| GCAUAUGGAGCAACUUGCUTT against Dsg1c | inactive: -1.17 |
| CAAUAGAGACUAGCCUCAUTT against Olfr160 | inactive: 0.709 |
| GGAUUUUGGGAAUAGAACUTT against Rtp4 | inactive: -0.636 |
| GGUAUUCCAGAGAAAGAUATT against Zfp207 | inactive: -1.35 |
| GCUGAGAUCUUACUAUUAGTT against Olfr1239 | inactive: 0.172 |
| GGCAUUAAACAAGAAGCUUTT against Epyc | inactive: -1.16 |
| GCUGAAUGGAAGGAAGUUGTT against Wdr83os | inactive: -1.32 |
| GCCUCAACCAAUCAUGAAGTT against Dbp | inactive: -0.369 |
| CCUAAUGGUUCAGGAUACGTT against Pcdhb5 | inactive: -0.641 |
| GGAGCACAUCUUUUCUGCCTT against Mixl1 | inactive: -1.22 |
| GGAAGCAGUCAGCUAACACTT against Baz1b | inactive: -1.64 |
| GCUAUGAGCUAACAAGUCUTT against Xkr5 | inactive: -0.0244 |
| CCAAAUGAAAUUAGUCCUCTT against Eif5 | inactive: -0.347 |
| CCUUGUAAGUGAGAUCCGATT against Olfr118 | inactive: 1.38 |
| GGAGUUUUGAAUAACAGCUTT against Ntn3 | inactive: -0.963 |
| GGAUCUAGAAAUGGUUAAGTT against Evpl | inactive: 0.209 |
| GGACUUAUGGCAUUAGAAUTT against Nup88 | inactive: -1.17 |
| GCUUCGACAAAAGAAGAUGTT against Ccdc174 | inactive: -0.373 |
| GGACCCAACCUCAAUGAAATT against Arfip2 | inactive: 0.57 |
| UGAUUGUCCUUACAAUGGUTT against Olfr1065 | inactive: -0.0653 |

| Sequence | z-score |
| --- | --- |
| GGGUCUAUACCAUCCGGGATT against Mdga2 | inactive: 0.0197 |
| CCGCUAGACAAAUUUUGCCTT against Slc6a2 | inactive: 1.45 |
| GGAGAUACUGAAAGAGGCCTT against C1qtnf12 | inactive: -1.25 |
| GGUGUGCUGUGUAAGGGAGTT against Inpp5b | inactive: 0.952 |
| GCUCAUUCGAGAGGAGAACTT against Cby2 | inactive: 0.636 |
| GGAAGAAGAUUCCUUACAATT against Spata21 | inactive: 1.18 |
| GGCUAAAUAUGUGAUUAGUTT against Maob | inactive: -0.311 |
| CCUAUUGCUGCCCUCAAGATT against Irf2bp1 | inactive: 0.00965 |
| GCACAUUCGAUAUGCAACATT against Cops3 | inactive: -1.33 |
| CCUUAAUGGUAAAUCCUCGTT against Vmn1r199 | inactive: -0.478 |
| GGGAACAGCAUCUCUGUCATT against Lypd6 | inactive: -0.169 |
| GGUGAGAAGACCAUUGAUUTT against Insr | inactive: 0.459 |
| GGGACAUGAUUUUGAACUUTT against Pfkfb2 | inactive: 0.701 |
| CCUGUGUUUCAGUUUGGUATT against Clptm1l | inactive: 0.549 |
| GCUAGUCUUAUGGACCAGATT against Eaf2 | inactive: -0.764 |
| GGGAAUCAUUAACAGCUUGTT against Hectd2 | inactive: 1.08 |
| GGGUGAGCGACAGAUGUCATT against Plcz1 | inactive: -1.67 |
| GGUCAAAGUAGGUAAAGAATT against Snx2 | inactive: -1.23 |
| GGAACUUAACUAUUGCACUTT against Hs3st1 | inactive: 1.07 |
| GCGCGAUCACAUUCUUUAGTT against 4921522P10Rik | inactive: 0.569 |
| GCCUCUCCUAUGUUCAGAGTT against Msl3l2 | inactive: 0.836 |
| GGAACCAUGGACCUUAAUUTT against Rbm4 | inactive: 0.291 |

Retrieved one by one from above (seven):

| Sequence | z-score |
| --- | --- |
| GCCUCAACCAAUCAUGAAGTT against Dbp | inactive: -0.369 |
| GGAAGCAGUCAGCUAACACTT against Baz1b | inactive: -1.64 |
| GGUGUGCUGUGUAAGGGAGTT against Inpp5b | inactive: 0.952 |
| GGAACUUAACUAUUGCACUTT against Hs3st1 | inactive: 1.07 |
| CCUAUUGCUGCCCUCAAGATT against Irf2bp1 | inactive: 0.00965 |
| GCACAUUCGAUAUGCAACATT against Cops3 | inactive: -1.33 |
| GCAUAUGGAGCAACUUGCUTT against Dsg1c | inactive: -1.17 |

Additional results:

| Sequence | z-score |
| --- | --- |
| GGCAGUGCAAGCCUUCAUGTT against Emp1 | inactive: 0.816 |
| GGUGGAAGCACAGAGUUGCTT against Prdm15 | active: 2.14 |
| CGGAUACAAUUUCUGACCGTT against Zdhhc23 | inactive: -0.163 |
| GGGCAGAACGCAUCUUGCATT against Gpt | inactive: -1.93 |
| GGGCUGAUGCUUAAACAAATT against Vmn1r72 | active: -2.19 |
| GGAUGCAUUUUUUCUGGAATT against Nop53 | inactive: 0.85 |
| GGAUGCACAUUCCUCUACATT against Clca2 | inactive: 0.0784 |
| GGUAUGCACUCACACCAGATT against Mus81 | inactive: 0.73 |
| GGUGAUUGAAGUUUGUGAGTT against D230025D16Rik | inactive: 0.506 |
| GGAACCAAUCGGGAUUUUGTT against B330016D10Rik | inactive: 0.179 |
| GGGUGAAAGACAGAGGACATT against Prmt7 | inactive: -1.13 |
| GGACCCUGAAGGAGCUGAATT against Per2 | inactive: -0.409 |
| GGAUCAUUUCUGGUGAUAATT against Map3k8 | inactive: -0.46 |
| GCAAUAUGUAUGUUAGUCUTT against Olfr1241 | inactive: -1.67 |
| GCCUAGACAAUGGUGACCUTT against Nsfl1c | inactive: -0.772 |
| GCAACGUGUAUUUAAAGACTT against Nrd1 | inactive: 1.16 |
| GGGCUUUAAUUCACAGAGCTT against Ticam2 | inactive: -1.23 |
| GGCUGAGUUAUUUGUGACATT against Syt13 | inactive: -1.41 |
| GGACAUGACAUUUUUACGCTT against Cyp4f16 | inactive: -1.26 |
| GGGAAUCUGGAAGACACCATT against Hap1 | inactive: -0.717 |
| GGUGGACAAGGAGAGGACUTT against H2-Q1 | inactive: 0.109 |
| GGAGCAGGAGAAAAUUUUGTT against Olfr437 | inactive: -0.0124 |

| Sequence | z-score |
| --- | --- |
| CCUGAGGUGUUUUACAUAUTT against Med20 | inactive: 0.085 |
| GGAUGAUUGAGAUAGCGAATT against Polr1e | inactive: 0.608 |
| CCUUGUGAAUACCCUAAUUTT against Mrpl43 | inactive: 0.123 |
| GGAUGAACUGACUAAAAUATT against Fmn1 | inactive: 1.24 |
| GGACCAUCGAAGAUGACUUTT against Pus1 | inactive: -0.678 |
| GGUGAUGUUUUAUGGCAGGTT against Olfr1335 | inactive: 0.329 |
| GGACGUGCUCCUUAAACUCTT against Snx8 | inactive: 1.16 |
| GCUGAGAAUCGUUUAAAUGTT against Ugt2a3 | inactive: 0.00662 |
| GGCGAAAUCUGCUAGAGUATT against Tppp3 | active: 2.3 |
| GCGAUUCAAACUUAUUCGATT against Pcdhb15 | inactive: 0.565 |
| GGAUUCAAAGUACCAAGUGTT against Cfap43 | inactive: 1.21 |
| GCAAAUGCACACUCUAGGATT against Ptprn2 | inactive: -0.0741 |
| GGAAAUAAAGUCCAUAGAATT against B3gnt3 | inactive: 0.00261 |
| GGAAUUCAGCAGUCAACUGTT against Krt15 | inactive: -0.629 |
| GCAUGUAGACUACAACGUGTT against Myoz1 | inactive: -1.27 |
| GGACUUAUUUCUUUAAGGATT against Mmp17 | inactive: -0.567 |
| GCUUAAGCCGGGUAAUAUCTT against Ccl6 | inactive: 1.41 |
| GCAGUACCUGUUCAGUUCGTT against Slc26a4 | inactive: -0.586 |
| GGAGAAAUAUGUAUGUACATT against Ece2 | active: 2.01 |
| GGCAACUUAGGAGUUAGACTT against Pgam5 | inactive: 0.533 |
| CCUGAGAUUGGGAAAUUCUTT against Engase | active: 2.02 |
| GGCCAACUCUAUUUUGAAGTT against Lrp2bp | inactive: 0.362 |

| Sequence | z-score |
| --- | --- |
| GGUUUGGUGUCAGGUGACATT against Olfr1181 | active: -2.05 |
| GGCUUAAGGCUAAUGGUCUTT against Fxyd5 | inactive: -0.778 |
| GGCAUAUAUACAUGCCUGCTT against Vmn1r215 | inactive: 0.833 |
| CCCUAUACAGCGUACCCAATT against Eya2 | inactive: -0.754 |
| GGUUGGUUUGGAGAAGGCATT against Krt35 | active: 2.91 |
| GGACAACCUGUUGACCUAGTT against Uba5 | inactive: -1.97 |
| GGAGGCAAAAUCUUUUGUATT against Kcnk10 | inactive: -1.27 |
| GGUGUGUGAGAUUAAAAGCTT against Ces2a | inactive: -0.485 |
| CGCCCGAAGCAAUAAAGAGTT against Rpl28 | inactive: 0.121 |
| GCCGAACAUACUGAACUGCTT against B2m | inactive: 0.622 |
| GGAAACUGGACAAGUCUUCTT against Mpnd | inactive: -0.392 |
| GGAGAACAAACUGAGGCACTT against Tspo2 | inactive: -1.89 |
| CGCAGAAAGAGCAUCAGAUTT against Atg9a | active: -2.42 |
| GGAUGAGGAGGAUACAAAGTT against Eif3c | inactive: 0.228 |
| CCUAUAUUCCAUGGAUUCUTT against Zwilch | inactive: -0.292 |
| GGUUGUAUUGAGGUCAAGGTT against Olfr1462 | inactive: -0.933 |
| GCCGUAUGUUGAUAUCUACTT against Ms4a1 | inactive: 0.921 |
| GCAGACAAUUGGUUUGAUUTT against Armcx6 | inactive: -0.819 |
| GCAAACAGCUAGUAAAAUGTT against Cyth3 | inactive: -0.83 |
